The values below come from publication PMC7819943, “Rice protein-binding microarrays: a tool to detect cis-acting elements near promoter regions in rice”.

This is one part of the list.

The assay addresses T1, OsSMF1 (Oryza sativa, UniProt Q6ZLB0 1-436).
T1 sequence: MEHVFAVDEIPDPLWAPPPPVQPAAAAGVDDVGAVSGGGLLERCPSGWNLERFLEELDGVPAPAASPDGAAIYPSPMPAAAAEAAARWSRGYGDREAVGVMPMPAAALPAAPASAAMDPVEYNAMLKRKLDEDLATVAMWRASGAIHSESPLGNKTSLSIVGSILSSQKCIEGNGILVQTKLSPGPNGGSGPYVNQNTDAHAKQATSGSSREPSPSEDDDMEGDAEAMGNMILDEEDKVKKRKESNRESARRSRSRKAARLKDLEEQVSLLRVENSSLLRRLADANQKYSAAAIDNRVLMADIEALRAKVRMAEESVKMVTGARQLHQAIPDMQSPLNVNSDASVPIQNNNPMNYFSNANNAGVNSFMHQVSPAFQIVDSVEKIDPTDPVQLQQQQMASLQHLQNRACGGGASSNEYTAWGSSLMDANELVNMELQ
Kind of assay: protein-binding microarray (RPBM); PBS, 2% BSA, 51.3 ng/ul salmon testes DNA, 50 uM zinc acetate, 200 nM TF, 25 C, 1 h; high values mean tight binding. The following applies: protein: recombinant; tags: N-terminal polyhistidine and DsRed monomer fusion (pET32a); chain copies: 2; label: CyDye5-dUTP incorporated in the synthesized complementary strand; 3' TTTTT single-stranded linker to array surface; dsDNA, one strand shown. The method in brief: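 Binding signal here means per-feature fluorescence intensity in arbitrary units. The values were read on an Axon 4000B scanner after a custom Agilent array, double-stranded by primer extension with Cy5-dUTP, was incubated with 200 nM protein at 25 °C for 1 h in PBS with 2% BSA, salmon testes DNA and 50 µM zinc acetate, then washed. The proteins were transcription factors with an N-terminal polyhistidine tag and DsRed, expressed in E. coli BL21-CodonPlus and purified on Ni–NTA.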
Take “GTCATCCTCGGACGGCCGATGTGGGCCCCACACGTCAGCACGGAGTCACCTAGTGCAG”: the binding signal is 23600 fluorescence intensity (a.u.).
For “AGCTAGCTAGTGACGTGCGAACTGAAACGAGGGAGGCGAGCGGAGTCACCTAGTGCAG”, the binding signal was 9700 fluorescence intensity (a.u.).
With “AGCGGAATCTGGCTCCTCGAACTTAAGCTGAGCCACAGAACGGAGTCACCTAGTGCAG” the figure was 25600 fluorescence intensity (a.u.).
“CCGGATCGAATTGCCACGTAAGCGTCACGTCACTGCCACACGGAGTCACCTAGTGCAG”: the binding signal is 17100 fluorescence intensity (a.u.).
With “ATGCAGGTCCCGTGTAGTATTATCTTATGCGGATTGCTTGCGGAGTCACCTAGTGCAG” the figure was 3410 fluorescence intensity (a.u.); with “CGTTTGCTTAGTTACGTATCACTGCTATCTTTGTCCCATACGGAGTCACCTAGTGCAG”, 4520 fluorescence intensity (a.u.).
Regarding “GCGCCATTGCCACGAATACGCGGCCCATAGAGAATTTGGCCGGAGTCACCTAGTGCAG”, the binding signal was 3280 fluorescence intensity (a.u.).
Regarding “ATGCTGAATTGGGTTGGGCTGGGGAGGAATTATAGACTATCGGAGTCACCTAGTGCAG”, the binding signal was 4260 fluorescence intensity (a.u.).
Turning to “TCTCGGTGACGGCGGCCTCGTCCCACTCCCGCCCGGGGATCGGAGTCACCTAGTGCAG”, the binding signal was 3260 fluorescence intensity (a.u.).
With “CTTTCCATGCGGACACGCCACGATGGCACGCCACGTAGGCCGGAGTCACCTAGTGCAG” the figure was 22100 fluorescence intensity (a.u.); with “ATGAATTTGGAGATAAGATTTTACACGTATGTATAATACTCGGAGTCACCTAGTGCAG”, 5680 fluorescence intensity (a.u.); with “AGAGCCCACCAGCTGCACCGGCGTGGCATCGTCCACTTGGCGGAGTCACCTAGTGCAG”, 5060 fluorescence intensity (a.u.).
With “ACCAAACACCGCAAAATAAACAGTCATCCTCCGCACCGCGCGGAGTCACCTAGTGCAG” the figure was 4480 fluorescence intensity (a.u.); with “ATCCACCACCTCCTCCTCCCGTCTCCGGCGACCGCCGCCGCGGAGTCACCTAGTGCAG”, 3170 fluorescence intensity (a.u.); with “ATCTTGCCGAAGTTGTTGGTGACGAAGTCGAGGCTGCCGACGGAGTCACCTAGTGCAG”, 3180 fluorescence intensity (a.u.).
“GATGGATTAAAATAGCTTCCCGAGTAGATAGATAGATTGACGGAGTCACCTAGTGCAG”: the binding signal is 32900 fluorescence intensity (a.u.).
With “GGATATTGGCCGCCGGCGGCGGCGGCGGCGAAGAAATTCGCGGAGTCACCTAGTGCAG” the figure was 24600 fluorescence intensity (a.u.); with “CTTTCCCTATCTTTCTCCTCATCATATGTGTCATGATGCACGGAGTCACCTAGTGCAG”, 9020 fluorescence intensity (a.u.); with “AACATCCACTGTCATGTTCTCTAATTCTATTGGATGCATGCGGAGTCACCTAGTGCAG”, 3490 fluorescence intensity (a.u.).
“ACCGTACCATTATTGTTGCTACAGGTGTCAGTCGACACAACGGAGTCACCTAGTGCAG”: the binding signal was 4850 fluorescence intensity (a.u.).
Then “AGGATGGAGAGTATTGTTGCCGCGTGTTCTTCCAGGCACCCGGAGTCACCTAGTGCAG”, with 3640 fluorescence intensity (a.u.); and “CCGTGGAGGCAGCCGGAGGGATCGCTGGCAGGTCAAATGGCGGAGTCACCTAGTGCAG”, with 29200 fluorescence intensity (a.u.).
Then “TTGATTTGTTACGTGTATATAATGGTTTGTTAAATTTGAACGGAGTCACCTAGTGCAG”, with 3340 fluorescence intensity (a.u.).
Then “GCACAACATTGCTCTCCTCCTGTGTCAAACGTGTCAGTCCCGGAGTCACCTAGTGCAG”, with 4880 fluorescence intensity (a.u.); and “AGTCCCTGCTTATGTTTGAAGATATGACGAAGCAAGGCGTCGGAGTCACCTAGTGCAG”, with 3840 fluorescence intensity (a.u.); and “ATATATGCACACAGGTTCTCGCGTGTACACCGTGTACACCCGGAGTCACCTAGTGCAG”, with 8530 fluorescence intensity (a.u.).
Consider “CCAAGAGAGAGGAGGAGGAGGAGGAGGAGTCGTGGGTCAGCGGAGTCACCTAGTGCAG”, for which the binding signal is 3610 fluorescence intensity (a.u.).
Then “TGTTCATGCTTAGAAGATGGCATTGCCACGTCCCAAGGGCCGGAGTCACCTAGTGCAG”, with 6180 fluorescence intensity (a.u.); and “GGCGAGAGGGAGGAGACGCCACGTGGGCGGAGACAGTGGACGGAGTCACCTAGTGCAG”, with 10400 fluorescence intensity (a.u.); and “TTATCCTGTCATCTCTTCCAGTCCACGCAAGCACGCCACTCGGAGTCACCTAGTGCAG”, with 8230 fluorescence intensity (a.u.).
With “AGAACACCATACACGTCCGGCTTCTCATGCGTCCACCGCTCGGAGTCACCTAGTGCAG” the figure was 3380 fluorescence intensity (a.u.).
With “CATTATAAATAACGTTGAATCCACGCGTTTGTGATGTGGCCGGAGTCACCTAGTGCAG” the figure was 7800 fluorescence intensity (a.u.).
“TGGTGGTGGTGGTGGGCCTTCCCGTCGTCGTCTTCGACTTCGGAGTCACCTAGTGCAG”: the binding signal was 3480 fluorescence intensity (a.u.).
Then “GTAGTACTCCAGTACACTGTAATCTAATACTGCTAGAAGTCGGAGTCACCTAGTGCAG”, with 35400 fluorescence intensity (a.u.).
For “AGGTGGGTCCACGTCGCCGACCCGCACCACATGGCCCACGCGGAGTCACCTAGTGCAG”, the binding signal was 6140 fluorescence intensity (a.u.).
With “TGTAGAGGTCTCATAAACCACCATGACCTTGCTGCTTCACCGGAGTCACCTAGTGCAG” the figure was 3320 fluorescence intensity (a.u.).
Then “TGATTAAACAAAGTGTGCAAGGCGTGTCTAGTCAGTAGTCCGGAGTCACCTAGTGCAG”, with 3980 fluorescence intensity (a.u.); and “GTGTGACAGTGTGACAGATGTGCATCATGTGGGTCACAAACGGAGTCACCTAGTGCAG”, with 6110 fluorescence intensity (a.u.).
In the case of “AATGATATTGTTGTCCAACATGACGGTATCAGACATTGATCGGAGTCACCTAGTGCAG”, the binding signal was 3440 fluorescence intensity (a.u.).
As to “ACCGTCGGTGTTGGATCGCGCTCCTCTGACGTAAAGTCAGCGGAGTCACCTAGTGCAG”, the binding signal was 4080 fluorescence intensity (a.u.).
As for “GGCATGCCGGTGCCACCTCCTCACCCACGGCACCATCCCACGGAGTCACCTAGTGCAG”, the binding signal is 4390 fluorescence intensity (a.u.).
With “AAACCAGATGCACGTGGGTACTCGTCATTTCTAATTGGTCCGGAGTCACCTAGTGCAG” the figure was 5540 fluorescence intensity (a.u.).
